Data: publication doi:10.1101/2021.07.16.452648
No constants are given. Whether binding was seen depends on the method and setting. In cells and extracts the contact can be indirect. These calls come from enrichment with a bait or labelling near it, and not all partners need be listed.

Amino acid sequences for entries named in this document (tags omitted). A change or cut given only in a name is not applied to a line headed by its entry. Residues count along the entry.
UniProt Q9H3Z4: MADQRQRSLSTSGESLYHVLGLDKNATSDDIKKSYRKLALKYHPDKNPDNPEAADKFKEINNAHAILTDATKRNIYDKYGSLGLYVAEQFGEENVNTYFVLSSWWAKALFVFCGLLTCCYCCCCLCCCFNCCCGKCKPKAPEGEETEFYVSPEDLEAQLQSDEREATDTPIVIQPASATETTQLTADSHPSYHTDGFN
UniProt P38646, residues 47-679: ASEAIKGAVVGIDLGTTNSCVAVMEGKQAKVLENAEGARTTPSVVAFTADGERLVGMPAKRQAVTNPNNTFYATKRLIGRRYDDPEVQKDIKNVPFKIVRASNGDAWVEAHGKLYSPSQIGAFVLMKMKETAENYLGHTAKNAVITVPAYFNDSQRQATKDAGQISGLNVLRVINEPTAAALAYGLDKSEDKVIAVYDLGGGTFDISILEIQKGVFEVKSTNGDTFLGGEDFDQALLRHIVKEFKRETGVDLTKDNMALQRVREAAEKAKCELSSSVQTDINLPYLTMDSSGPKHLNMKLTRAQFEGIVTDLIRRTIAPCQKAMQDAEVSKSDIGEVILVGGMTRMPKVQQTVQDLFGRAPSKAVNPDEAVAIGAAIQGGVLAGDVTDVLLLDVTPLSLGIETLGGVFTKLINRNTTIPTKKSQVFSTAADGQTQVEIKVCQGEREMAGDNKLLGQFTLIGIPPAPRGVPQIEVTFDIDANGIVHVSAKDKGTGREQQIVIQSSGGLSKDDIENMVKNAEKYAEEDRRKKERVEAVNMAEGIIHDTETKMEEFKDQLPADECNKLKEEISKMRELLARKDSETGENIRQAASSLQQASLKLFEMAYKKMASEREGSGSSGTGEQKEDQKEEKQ

Biological target: CSPα ΔJ-SBP-FLAG (UniProt Q9H3Z4)
Assay: affinity purification with mass spectrometry

binding | Substance
binds | CD98hc (endogenous) (from UniProt P08195 1-529)
binds | HSPA9 (endogenous) (from UniProt P38646 47-679)
